Data source: PubChem BioAssay AID504808 (Drosophila RNAi Screening Center, 2011)
Assay: 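Chromatin factors that keep E2F targets switched off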 (primary screen). Cell system: Drosophila S2 cells. Reagent: long dsRNA against Drosophila genes. Measured: 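Firefly luciferase driven by E2F sites, normalised to Renilla luciferase on the same minimal promoter, measured by plate reader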. Reading the numbers: E2F firefly: higher = more E2F reporter activity; Renilla normaliser: higher = more normaliser reporter signal. Active means: 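Called active if the normalised E2F reporter went up by over 50%; the cutoff is arbitrary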.
The deposit covers about 21,000 reagents; below is a random part of those that have a named target and a result. In the full data, 18 (0.084%) were called active. 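Raw counts without plate normalisation, one of two replicates; the ratio scores behind the calls were not deposited.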 Unmarked entries are inactive. Not stated in the record: the amount of reagent, the time to read-out.

gene knocked down,dsRNA,"E2F firefly, rep 1","Renilla normaliser, rep 1"
unc-45,DRSC15449,1.40e5,7295
Smu1,DRSC15803,69422,3371
CG11168,DRSC14292,86112,3525
Drl-2,DRSC05393,1.31e5,4823
Drl-2,DRSC06155,97869,4402
Drl-2,DRSC06858,1.01e5,4588
CG42264,DRSC18074,50054,3789
CG42264,DRSC18075,59019,3539
CG13223,DRSC06344,1.01e5,4290
CG15247,DRSC17976,1.24e5,5458
mrt,DRSC15484,1.26e5,6953
P5cr-2,DRSC15889,1.19e5,6198
vig2,DRSC14402,74189,3372
CG15473,DRSC18056,1.06e5,5626
Mat1,DRSC07465,1.40e5,5008
Capa,DRSC15058,1744,1040
CG31269,DRSC15744,1.10e5,6663
CG18649,DRSC10334,1.41e5,7217
Git,DRSC06620,3206,198
CG9346,DRSC04542,84254,3714
E(spl)m4-BFM,DRSC16992,97162,6105
gro,DRSC16962,1951,1376
CG14102,DRSC10103,1.38e5,8382
CG3216,DRSC04347,1.03e5,5080
CG30192,DRSC03977,1.29e5,4829
Pus1,DRSC15548,1.32e5,6897
Cow,DRSC13601,53467,3757
Cow,DRSC14680,1.10e5,5787
nullo,DRSC18807,1.15e5,5493
mbo,DRSC16123,70393,3794
CG13031,DRSC09911,1.75e5,9219
CG11200,DRSC06060,68495,3418
Gr8a,DRSC18043,1.30e5,5549
rumi,DRSC15177,72536,3838
PH4alphaEFB,DRSC14473,1651,844
PH4alphaEFB,DRSC14950,1.35e5,6203
Lapsyn,DRSC04249,82909,3917
CG2961,DRSC18246,1.23e5,5319
Mkp3,DRSC10084,76947,3176
Mkp3,DRSC10085,1.51e5,6888
RhoGAP93B,DRSC15488,1.42e5,6884
zfh2,DRSC17178,2003,936
Msr-110,DRSC11227,68261,2942
zf30C,DRSC03641,1.07e5,4150
CG13991,DRSC02323,1.58e5,5351
mth,DRSC08725,78027,3564
RASSF8,DRSC15707,1861,1120
Cpr49Ab,DRSC05341,1.44e5,5233
Cyp301a1,DRSC07365,1.07e5,4746
Ir75b,DRSC10189,1.69e5,8209
CG2750,DRSC19867,73988,3586
CG3982,DRSC10394,73360,5014
CG16743,DRSC02514,1.27e5,4590
mgr,DRSC16099,1.44e5,7051
CG6295,DRSC16012,1.14e5,6439
CG7631,DRSC01873,92551,3826
GstS1,DRSC07436,72455,3045
ND5 (retired record),DRSC21281,1.37e5,6322
CG1999,DRSC18199,7813,712
peb,DRSC18817,44444,3379
CG32050 (retired record),DRSC10173,1.24e5,6452
CG34225,DRSC05270,1.27e5,5150
CG16775,DRSC10225,1.64e5,7585
CG8157,DRSC07085,91935,3683
Pect,DRSC02867,92924,3674
Pect,DRSC02868,94581,4423
Mesh1,DRSC14433,1.26e5,6539
Efhc1.1,DRSC20135,1.52e5,5699
nerfin-1,DRSC08729,84524,3667
CG8300,DRSC18426,8516,712
CG34433,DRSC15077,1.22e5,6067
Pp2A-29B,DRSC03400,1.56e5,4296
CG17242,DRSC00493,1.59e5,5744
CG13589,DRSC04225,1.12e5,4296
CG9945,DRSC07347,93885,4024
Rab30,DRSC03137,1.45e5,5042
CG31460,DRSC14370,69098,3323
alpha-PheRS,DRSC18224,7744,704
CG11263,DRSC09832,1.33e5,8251
Kebab,DRSC00827,84093,3453
Cul6,DRSC09830,78527,3918
CG13359,DRSC18539,1.28e5,6114
Nadk1a,DRSC05431,1.36e5,5223
Nadk1a,DRSC06963,2889,210
CG2790,DRSC04045,88700,3832
RabGGTa,DRSC12189,79539,3960
CG5255,DRSC15754,1.15e5,5995
CG10600,DRSC02074,70482,3706
CG9095,DRSC20150,1.49e5,6251
Mo25,DRSC11224,69726,3408
Bdbt,DRSC15218,1.17e5,6431
grim,DRSC11352,97661,6980
CG14642,DRSC12228,87563,4267
CG10616,DRSC09750,70716,3289
CG7557,DRSC10878,76599,3905
CG13994,DRSC02326,1.40e5,5099
CG34109,DRSC02169,1.53e5,5743
CG34109,DRSC02224,1.59e5,4691
CG34109,DRSC02225,1.61e5,4785
Bcs1,DRSC02789,1.65e5,5587
CtsK2,DRSC06897,77711,3416
boca,DRSC06408,1.39e5,4661
CG8089,DRSC07074,1.05e5,4700
Tsp42El,DRSC06186,92131,3368
spn-A,DRSC16812,1.23e5,5801
CG42685,DRSC01971,1.03e5,4584
Polr1H,DRSC14594,69790,3704

A stretch taken from the entries so far, for reference:
gene knocked down,dsRNA,"E2F firefly, rep 1","Renilla normaliser, rep 1"
CG13991,DRSC02323,1.58e5,5351
mth,DRSC08725,78027,3564
RASSF8,DRSC15707,1861,1120
Cpr49Ab,DRSC05341,1.44e5,5233
Cyp301a1,DRSC07365,1.07e5,4746
Ir75b,DRSC10189,1.69e5,8209
CG2750,DRSC19867,73988,3586
CG3982,DRSC10394,73360,5014
CG16743,DRSC02514,1.27e5,4590
mgr,DRSC16099,1.44e5,7051
CG6295,DRSC16012,1.14e5,6439
CG7631,DRSC01873,92551,3826
GstS1,DRSC07436,72455,3045
